# Measured values from the supplement of paper PMC10338343.
# ± gives the standard deviation. Only a part is listed here, and it is no random draw. Many of these values have a large error.
# System: MIWI (PIWIL1) piRISC loaded with Kctd7 piRNA (30 nt)
# Test: pre-steady-state target cleavage rate (min^-1); MIWI and MILI are mouse PIWI proteins and EfPiwi is from a freshwater sponge; tags in brackets are library labels; higher = faster piRNA-guided slicing of the target
# Conditions: guide: Kctd7 piRNA 5'p-UGUUAAUCUCUCAGAGAAGGUGACAGUGAU; auxiliary factor: 500 nM mouse GTSF1
# Summary of the method: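 Cleave-'n-Seq measured uncleaved targets by sequencing after a transcribed, DNA-blocked target RNA library […] was mixed with 1 nM active affinity-purified piRISC holding one synthetic guide, with or without 500 nM GTSF1 partner protein, at 33 °C in HEPES–potassium acetate buffer for 0–8 or 0–960 min. Counts were normalised to depth and to weakly complementary targets, three trials were pooled, and k3 was capped at 0.0001 min^-1. A burst-and-steady-state fit gave the pre-steady-state cleavage rate.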
# 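Further: 1 nM active piRISC with 0.1 nM target library at 33 °C single turnover.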
row,Sequence,pre-steady-state target cleavage rate
1,UAGUGACAGACCUUCUCUGAGUCAUUAACA,0.00161 ± 0.0047
2,UAGACUGUCACCUGCUCUGAGAGAUUAACA,0.77 ± 0.043
3,UAGUGAGUCACGUUCUCUGAGAGAUAUUGA,0.00276 ± 0.0042
4,UAGUGACAGACCUUCUCGUGAGAGAUUAACA,0.000564 ± 0.019
5,UUCGACUGUCACCUUCUCUGAGAGAUUAACA,0.859 ± 0.06
6,UAGUGACAGACCUUCUCUGACAGAAUAACA,0.00215 ± 0.006
7,UACACUGUCACCUUCUCUCUCAGAUUAUGA,0.00204 ± 0.009
8,UAGUGACAGACCUUCUCUGAGUCUUUAACA,0.000457 ± 0.02
9,UACACGUCACCUUCUCUGAGAGAUUAACA,0.737 ± 0.043
10,UAGUGACAGUGCUACUGUGAGAGAUUAACA,0.000326 ± 0.016
11,UAGUGACUCACCUUCUCUGACUCAUUAAGA,0.000166 ± 0.019
12,UAGUCUGUCAGCUUCUCUGAGAGAUUUUGA,0.00234 ± 0.0039
13,UAGUCUGUCACCUUGACUGAGAGAUUAAGA,0.00338 ± 0.0035
14,UAGUGACAGUGGAUCUCUGAGAGAUUAACA [g2:g17:cont:t1A],0.00112 ± 0.004
15,UAGUGACAGACCUUCUGACUCUCUAAUUGA [g15:g21:cont:t1A],0.000455 ± 0.018
16,UUCUCUGUCAGCUUCUCUGAGAGAUUAACA,0.586 ± 0.028
17,AUCUGAGUCACCUUCUCUGAGAGAUUAACA,0.652 ± 0.053
18,UAGUGAGUCACCUUCUCUGUCAGAUUUUGA,0.00154 ± 0.009
19,UAGUGACAGUGGAAGAGACAGAGAUUUACA,0.000272 ± 0.019
20,UAGUGUGUCACCUUCUCACAGAGAUUAUGA,0.00137 ± 0.0092
21,UAGUGACAGACCUUCAGUGAGAGAUUAACA,0.00196 ± 0.0067
22,UAGUGACAGUGCAUCUCUGAGAGAUUAACA,0.000816 ± 0.0075
23,UAGUGACUCACCUUCUCUAGAGAGAUUAACA,0.000506 ± 0.018
24,UAGUGACACACCUUCUCUGUCAGAUUAACA,0.00228 ± 0.0046

row,Sequence,pre-steady-state target cleavage rate
1,UAGUGACAGUCCUUCUCUGAGCAGAUUAACA,0.00168 ± 0.0041
2,UACACUGUCACCUUGUCUGAGAGAUUAACA,0.355 ± 0.042
3,UAGACUGUCACCUUCUCUGAGACUUUAACA,0.00296 ± 0.0033
4,UUCAGUGUCACCUUCUCUGAGAGAUUUUGA,0.161 ± 0.043
5,UAGUGUGUGUGCUUCUCUGAGAGAUUAUGA,0.00181 ± 0.0053
6,UAGUGACUCACCUUCAGUGAGAGAUUUUGA,0.000481 ± 0.013
7,UAGUGACAGUCCUUCUCGGAGAGAUUAACA,0.00251 ± 0.0037
8,UAGUGACAGUCCUUCUCACAGAGAUUAUGA,0.000478 ± 0.018
9,UAGUGUGUCACCUUCAGAGAGAGAUUAAGA,0.00227 ± 0.0073
10,UUCACAGUCACCUUCUGUGAGAGAUUAACA,0.363 ± 0.035
11,UUCACUGUCACCUUCUCUGAGACUAAUUGA,0.00193 ± 0.0032
12,UUCACUGUGCACCUUCUCUGAGAGAUUAACA,0.606 ± 0.05
13,UAGUGUGUCACCUUCUCUGACAGAUAUUGA,0.00135 ± 0.0084
14,UAGUGACACACCAAGUCUGAGAGAUUAACA,0.00224 ± 0.0051
15,UAGACUGUCACCUUCUCUGAGGGAUUAACA,0.741 ± 0.051
16,UAGUGACAGUGGAAGAGACUGUCUUUAACA,0.000753 ± 0.01
17,UAGUCUGUCAGGAUCUCUGAGAGAUUAAGA,0.00328 ± 0.0033
18,UAGUGACAGACCUUCUCUGUGAGAAUAACA,0.0031 ± 0.0056
19,UACACUGUCAGGAUCUCUGAGAGAUAUUGA,0.000103 ± 0.035
20,UACACUGUCACCUUCUGACAGAGAUUAAGA,0.000464 ± 0.028
21,UAGUGACAGUGGAAGAGUGAGAGAUUCAACA,0.000103 ± 0.069
22,UAGUGAGUCACCAACUCUGAGAGAUUAUGA,0.00154 ± 0.0051
23,AUCACUGUCAGGAUCUCUGAGAGAUUAUGA,0.00135 ± 0.0055
24,AUCACUGUGUGCUUCUCUGAGAGAUUAUGA,0.00109 ± 0.0061

# Single entries from the results shown.
# Value of UAGUGACACACCUUCUCUGUCAGAUUAACA under pre-steady-state target cleavage rate: 0.00228 ± 0.0046
# Value of UAGUGUGUCACCUUCAGAGAGAGAUUAAGA under pre-steady-state target cleavage rate: 0.00227 ± 0.0073
# Value of UAGUGACUCACCUUCUCUGACUCAUUAAGA under pre-steady-state target cleavage rate: 0.000166 ± 0.019

# Remaining list, next part:

row,Sequence,pre-steady-state target cleavage rate
1,UAGUGACAGUGCUUCUCUGAAGAUUAACA,0.000116 ± 0.023
2,UAGUGACUCACCUUCUCUGAGACAUUAUGA,0.00302 ± 0.0035
3,UAGUGACAGUGGAAGAGAGACAGAUUAUCA,0.000264 ± 0.016
4,UACACUGUCACCUUCUCUGAGACUUAUUGA,0.00189 ± 0.006
5,UAGACUGUCACCUUCUCUGUGAGAUAUUGA,0.00204 ± 0.0037
6,UAGUGACUCUCCUUCUCUCAGAGAUUAACA,0.00165 ± 0.0035
7,UAGUGACAGUCCAUCUCUGUGAGAUUAACA,0.000787 ± 0.0077
8,UAGUCUGUCACCAUUCUCUGAGAGAUUAACA,0.601 ± 0.03
9,UAGUGACAGUGGAAGAGACUGUCAUUAACA,0.0014 ± 0.0075
10,UAGUGACUCACCUUCUCUGAGAGAUAUACA,0.143 ± 0.019
11,UAGUGACAGUGCUUCUCUGACUCAUUAAGA,0.00015 ± 0.022
12,UAGUGACAGUGGAACUCUGAGAGAUUAACCA,0.000115 ± 0.039
13,UAGUGACAGUCCUUCUCUGAGGAUUAACA,0.000871 ± 0.0035
14,UAGUGACAGUGGAAGAGAGAGAGAUUAUACA,0.000183 ± 0.036
15,UAGUGACAGUCCUUCUCUGAGAGAUAACA,0.000206 ± 0.012
16,UAGUGACAGUCCUUCUCUGACACAUUAACA,0.00037 ± 0.018
17,UAGACUGUCACCUUCUGAGAGAGAUUAUGA,0.00125 ± 0.0045
18,UAGUGACAGACCUUGUGUGAGAGAUUAACA,0.000653 ± 0.012
19,UAGUGUGUCACCUUCUCUCUGAGAUAUUGA,0.000926 ± 0.0097
20,UAGUGACAGACCUUCUGACAGAGAUUAACA,0.000324 ± 0.035
21,UAGUGACAGUGCUUCUCUGAGAGAUUACACA,0.00159 ± 0.0041
22,UUCACUGUCACCUUCUCUGAGGGAUUAACA,0.51 ± 0.024
23,UAGUGACUCACCUUCUCUGUGUGAUUAACA,0.00321 ± 0.0041
